Values from PubChem BioAssay AID1224826 (NIAID, 2016)
Purpose: 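Genes that change LPS-induced Tnf promoter activity in mouse macrophages when knocked down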 (primary screen). Cell system: RAW264.7 G9 macrophages from mouse bearing reporters for p65 (GFP) and the Tnf promoter (mCherry). Knock-down reagent: siRNA pool against mouse genes, 100 nM. Time to read-out: 16 h of LPS stimulation, after 2 days of siRNA transfection. Challenge: bacterial lipopolysaccharide (Salmonella minnesota R595), 10 ng/ml. Read-out: 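Imaged Tnf reporter mCherry in nuclei, minus background, normalised per plate to the median and expressed as robust z-scores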. Direction: Tnf reporter robust z-score: higher = stronger Tnf promoter reporter signal after LPS. Hit rule: 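Called active when robust z-score is at most -1.3, matching the median of the Tlr4 knock-down control, or over 3; control wells and wells with under 50 cells never active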. Meaning of the calls: active = Tnf reporter clearly lowered or raised; inactive = no clear change in Tnf reporter.
Here is a random part of about 17,000 reagents tested. About 1,110 of them (6.6%) were called active. 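Active means lowered or raised reporter signal; replicate intensities are raw and not normalised per plate.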 Unmarked entries are inactive. Not all columns of the deposit are shown.

{"gene knocked down":"Slc37a1","fewer than 50 cells in well":"fewer than 50 cells per well; well left out of calls"}
{"gene knocked down":"Gzf1 (GDNF-inducible zinc finger protein 1)","Tnf reporter robust z-score":-0.19,"fewer than 50 cells in well":"enough cells in well"}
{"gene knocked down":"Mapk12 (mitogen-activated protein kinase 12)","Tnf reporter robust z-score":-0.24,"fewer than 50 cells in well":"enough cells in well"}
{"gene knocked down":"Gm5115 (predicted gene 5115)","Tnf reporter robust z-score":0.55,"fewer than 50 cells in well":"enough cells in well"}
{"gene knocked down":"Eps15 (EGFR pathway substrate 15)","Tnf reporter robust z-score":1.56,"fewer than 50 cells in well":"enough cells in well"}
{"gene knocked down":"Adgrb3 (adhesion G protein-coupled receptor B3)","Tnf reporter robust z-score":0.66,"fewer than 50 cells in well":"enough cells in well"}
{"gene knocked down":"Gp5 (glycoprotein 5 platelet)","Tnf reporter robust z-score":-0.54,"fewer than 50 cells in well":"enough cells in well"}
{"gene knocked down":"Irx3os (iroquois homeobox 3, opposite strand)","Tnf reporter robust z-score":0.39,"fewer than 50 cells in well":"enough cells in well"}
{"gene knocked down":"Serinc2 (serine incorporator 2)","fewer than 50 cells in well":"fewer than 50 cells per well; well left out of calls"}
{"gene knocked down":"Tmprss12 (transmembrane (C-terminal) protease, serine 12)","fewer than 50 cells in well":"fewer than 50 cells per well; well left out of calls"}
{"gene knocked down":"Ogfod1","Tnf reporter robust z-score":1.6,"fewer than 50 cells in well":"enough cells in well"}
{"gene knocked down":"Tctn2 (tectonic family member 2)","Tnf reporter robust z-score":1.56,"fewer than 50 cells in well":"enough cells in well"}
{"gene knocked down":"Prdx5 (peroxiredoxin 5)","Tnf reporter robust z-score":2.08,"fewer than 50 cells in well":"enough cells in well"}
{"gene knocked down":"Tnnt2 (troponin T2, cardiac)","Tnf reporter robust z-score":-0.63,"fewer than 50 cells in well":"enough cells in well"}
{"gene knocked down":"Mapk1 (mitogen-activated protein kinase 1)","Tnf reporter robust z-score":-0.99,"fewer than 50 cells in well":"enough cells in well"}
{"gene knocked down":"Nsun3 (NOL1/NOP2/Sun domain family member 3)","Tnf reporter robust z-score":-0.48,"fewer than 50 cells in well":"enough cells in well"}
{"gene knocked down":"Or2a51 (olfactory receptor family 2 subfamily A member 51)","Tnf reporter robust z-score":2.2,"fewer than 50 cells in well":"enough cells in well"}
{"gene knocked down":"Gpr176 (G protein-coupled receptor 176)","Tnf reporter robust z-score":-0.18,"fewer than 50 cells in well":"enough cells in well"}
{"gene knocked down":"Per3 (period circadian clock 3)","Tnf reporter robust z-score":0.37,"fewer than 50 cells in well":"enough cells in well"}
{"gene knocked down":"U2af2 (U2 small nuclear ribonucleoprotein auxiliary factor (U2AF) 2)","fewer than 50 cells in well":"fewer than 50 cells per well; well left out of calls"}
{"gene knocked down":"Ip6k1 (inositol hexaphosphate kinase 1)","fewer than 50 cells in well":"fewer than 50 cells per well; well left out of calls"}

Copied from above (2 entries):
{"gene knocked down":"Eps15 (EGFR pathway substrate 15)","Tnf reporter robust z-score":1.56,"fewer than 50 cells in well":"enough cells in well"}
{"gene knocked down":"Adgrb3 (adhesion G protein-coupled receptor B3)","Tnf reporter robust z-score":0.66,"fewer than 50 cells in well":"enough cells in well"}
